Laboratory results as given in publication PMC4414558.
Results are given in words; binding and its absence hold for the method and conditions named. Binding seen in cells or lysates may run through a third protein. Some entries that bind do so weakly or less than the wild type. Where a sequence is shown, tags or fusion partners need not be part of it.

What was measured:
[1] = biological target: T1, Windpipe (Wdp), untagged (Drosophila) (UniProt Q9W266); test: co-IP; S2 cells co-transfected with Arm-Gal4, pUAST-dome-HA and pUAST-wdp (with or without V5 tag) or pUAST-V5 control; lysed in RIPA buffer without SDS (50 mM Tris-HCl pH 7.8, 150 mM NaCl, 5 mM EDTA, 0.5% Triton X-100, 0.5% NP-40, 0.5% DOC); antibody 3 h at 4°C, protein G beads overnight at 4°C; western blot with anti-V5, anti-HA, anti-Wdp
T1 sequence: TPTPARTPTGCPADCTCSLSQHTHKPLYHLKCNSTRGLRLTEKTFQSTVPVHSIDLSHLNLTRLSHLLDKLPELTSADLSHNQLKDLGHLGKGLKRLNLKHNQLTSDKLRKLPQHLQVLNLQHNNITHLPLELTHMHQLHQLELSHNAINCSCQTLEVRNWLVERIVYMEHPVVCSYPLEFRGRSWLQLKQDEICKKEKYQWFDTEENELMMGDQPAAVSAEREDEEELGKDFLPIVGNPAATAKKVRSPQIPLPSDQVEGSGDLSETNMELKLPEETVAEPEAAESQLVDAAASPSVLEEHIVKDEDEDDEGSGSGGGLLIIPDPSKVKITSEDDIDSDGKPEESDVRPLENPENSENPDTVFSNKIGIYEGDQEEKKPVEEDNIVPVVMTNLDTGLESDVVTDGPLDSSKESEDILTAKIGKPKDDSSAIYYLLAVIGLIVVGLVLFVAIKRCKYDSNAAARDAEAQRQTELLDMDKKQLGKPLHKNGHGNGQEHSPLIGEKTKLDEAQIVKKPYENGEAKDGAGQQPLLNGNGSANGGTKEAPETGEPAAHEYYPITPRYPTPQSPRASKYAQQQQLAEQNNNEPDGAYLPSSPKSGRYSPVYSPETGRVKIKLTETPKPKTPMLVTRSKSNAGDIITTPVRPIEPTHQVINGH

[2] = biological target: T2, V5-tagged Windpipe (Wdp) (Drosophila) (UniProt Q9W266); test: as above
T2 sequence: T1 sequence

- binding [1]: binds
- binding [2]: binds
B1: HA-tagged Domeless (Dome) (receptor, UniProt Q9VWE0 24-1282)
chain: ILDPGWVIPSKVEQLIGGDFNLSCTLNEDYFNGKSAEDCPVEKLYFTGGGRVYRDSKHIRILNNTTILFSDTNAVEQENDYHCMCDEYVINKSKVYVGTRPLLVRDFNCLDYDFQFMVCNFTQPPNTVITKYNISYNTNNDWRYSNTLDCNFDSAPVVTCNLTDDNYKRFSETFYFRLSISNALGHETQPITINHFERLVPARPGQNLTLLNRTESSVCLSWEMPRRSNYNRGLVWQVRVTPQNFEPITRPSWRNHTLTIKDTLCLTELPFAGYNYTLRVRVRANQNNTLWSEPMIYAFATAPAPPRRPPRVTYGSFYVYSSEKAMRFYWEPLEEHELNGPDFRYSISEYRINGTAVDPGLIKVESNSAMIDHWSMSAVHHFLIRSSNSQGLSVNATPMTIGPISNRDFKVREPRNIRSVYHPTNKSYTLSWDPPSDQRELQNYTVFWCVPKPGLQSECEGSIRFAEVASGLHHFTTSPDQLLTLHMAVSANYQSHNTGLHWAICSSDKKDDLAKMEPSIDVATSTSLTVSWSERVCAVILAGYNLTYCQRSAGRPDNCTTVTIDRYTNKHVIQNLVPYTDYSVKMLMYSDSRVSKYSDELVNRTGEAAPSQPRELQLIRVTSDSVELAWKPPLLANGVVRAYEGTFRSLHDNVTDTFRVSASADELVNNEKPITYRLGNLTAFTKYEISVRARTVYPSEPSNVILFSTAIGVPSPPQLYVINNPDQSSRLDWEPPRTPAGRIDFYEISLRDNNASCLTSTILPGRNLSYVMATPRCTSHNPFQLAVRAINVEQHPQLNGADAAEGAVLLMSTNGKGCEARTDALGEEERLQFEAYAANMTAYRLYRSDWGIYGFICTPDTHSVKAMYQTIEVTVAILVLGVIFYLVYKKYRKMSDIGLVLPQGIMETMKKPIDMGGLGLGLGPDSSVSGGIVCTRVDDSPPYTPQDLPHDFSSCGSESSKLLLRTASSSGGGGCVDRDGYDDNHETGPISAVGPPTSYLAMRHGLLVQNDRERERERDREQEREREQQQQQRESEMDREQSCTNGYIKPTQMKSWGGNGPSDNDHTFSVPSTAMTAPMSQPLSQIPLSGYVPVPIPQSRFNPAPVQPFGSPAVPSAATAAAASTFFPPAHLLNMDNYVQASDLHKLKPLVAAPLSQTGGPAFAGSSPATSPPLQLPPVHAASPAAATPKMADIGYTTMEQLQLTGLIKPPLAATVGSPTHAAGGAPGGGNQHSRLQPQINGYVTPQDLNAMAHNRHVL
